Data as given in paper PMC7819943, “Rice protein-binding microarrays: a tool to detect cis-acting elements near promoter regions in rice”.
Some of the results follow.

Protein sequences, listed by entry. Tags and fused reporters are not part of them.
UniProt Q0JBA9, entry or part of it: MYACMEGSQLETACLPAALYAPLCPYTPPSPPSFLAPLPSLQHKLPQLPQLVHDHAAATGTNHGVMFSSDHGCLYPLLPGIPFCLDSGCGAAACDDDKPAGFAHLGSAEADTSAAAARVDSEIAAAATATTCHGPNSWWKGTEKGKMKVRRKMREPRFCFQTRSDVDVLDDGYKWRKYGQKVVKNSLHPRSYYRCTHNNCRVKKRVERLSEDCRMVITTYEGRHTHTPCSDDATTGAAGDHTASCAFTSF

Molecular target: OsWRKY34 (Oryza sativa, UniProt Q0JBA9 1-250)
Assay: protein-binding microarray (RPBM); PBS, 2% BSA, 51.3 ng/ul salmon testes DNA, 50 uM zinc acetate, 200 nM TF, 25 C, 1 h; high values mean tight binding
Details: protein: recombinant; tags: N-terminal polyhistidine and DsRed monomer fusion (pET32a); label: CyDye5-dUTP incorporated in the synthesized complementary strand; 3' TTTTT single-stranded linker to array surface; dsDNA, one strand shown
Summary of the method: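 The binding signal for each feature is its fluorescence intensity in arbitrary units. An Axon 4000B scanner was used to read a custom Agilent array that had been made double-stranded with Cy5-dUTP primer extension, blocked with 2% BSA, incubated at 25 °C for 1 h with 200 nM protein in PBS, 2% BSA, salmon testes DNA and 50 µM zinc acetate, and washed. The protein was an N-terminal polyhistidine–DsRed transcription factor fusion from E. coli BL21-CodonPlus, purified on Ni–NTA.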

**Q.** “TGGGCTCTCTCTCTCTCTCTCTCTCTCGCCTCTCTATCTACGGAGTCACCTAGTGCAG” was tested. Which binding signal did it give?
**A.** 9550 fluorescence intensity (a.u.)

**Q.** Which binding signal does the source give for “TCGTTCTTCCTTTCTTCTTAAGACATCTCATGCATGACCTCGGAGTCACCTAGTGCAG” here?
**A.** 12600 fluorescence intensity (a.u.)

**Q.** How did the binding signal turn out when “TCACCCGGCCCATCTGCAACCCGTCGAGTCCAACCCGCCGCGGAGTCACCTAGTGCAG” was run?
**A.** 11500 fluorescence intensity (a.u.)

**Q.** “GGACCTACCCCTATATATAGCACTCATGTTTGAGAGTAAACGGAGTCACCTAGTGCAG” was tested. Which binding signal did it give?
**A.** 9390 fluorescence intensity (a.u.)

**Q.** For “GGGTCTCAAGTTTAGCAGTCAATATGGCATTTTTCTATTTCGGAGTCACCTAGTGCAG”, which binding signal is on record?
**A.** 10100 fluorescence intensity (a.u.)

**Q.** “GTCCACAGTTTCTCTCTCTTCTCTTCTCTTCTCTCTCTCACGGAGTCACCTAGTGCAG” was tested. Which binding signal did it give?
**A.** 11300 fluorescence intensity (a.u.)

**Q.** With “ATGTCAACTCTCTTCACTTCAATGATCGTTTAGCTCTATCCGGAGTCACCTAGTGCAG” as the sequence, how does the binding signal read?
**A.** 8940 fluorescence intensity (a.u.)

**Q.** Which binding signal does the source give for “TCGAGTTATCACTATCAACTTTCGGCGCTGCCTGTTTACACGGAGTCACCTAGTGCAG” here?
**A.** 9070 fluorescence intensity (a.u.)

**Q.** For “GGTGTGTTTGGCAAATGAGTTATGAGAGGTGTGATTGTTACGGAGTCACCTAGTGCAG”, which binding signal is on record?
**A.** 8860 fluorescence intensity (a.u.)

**Q.** Which binding signal does the source give for “TTTGCACTATTCACATCCAACGTTTAACTATTCGTCTTATCGGAGTCACCTAGTGCAG” here?
**A.** 12200 fluorescence intensity (a.u.)

**Q.** “CTCGCCTTTTGTTGACTTGGCAAACGACCCTGATCTCAAACGGAGTCACCTAGTGCAG” was tested. Which binding signal did it give?
**A.** 8850 fluorescence intensity (a.u.)

**Q.** How did the binding signal turn out when “GTCCGACCGCATTACTATCCGCCATGATCGGAGCCAAGCCCGGAGTCACCTAGTGCAG” was run?
**A.** 8040 fluorescence intensity (a.u.)

**Q.** For “TATTTTGTTAATGTCGCGTGTTGTTTGAGTGTTCTTGAAGCGGAGTCACCTAGTGCAG”, which binding signal is on record?
**A.** 11300 fluorescence intensity (a.u.)

**Q.** “CTCTACTACTCTAATCCTCCATCAGTCACCATTGTATCTACGGAGTCACCTAGTGCAG” was tested. Which binding signal did it give?
**A.** 9300 fluorescence intensity (a.u.)

**Q.** Which binding signal does the source give for “TATAAGCGTTCATTCACACTCTCTTTCTAGCTCATTGCTTCGGAGTCACCTAGTGCAG” here?
**A.** 8340 fluorescence intensity (a.u.)

**Q.** With “GGCGGGGCGGCGGAGGTGGTGGTGGGGAGGGCGAGAGATGCGGAGTCACCTAGTGCAG” as the sequence, how does the binding signal read?
**A.** 23400 fluorescence intensity (a.u.)

**Q.** “CCGCATCCTGCCGCACTACCGTCTCCCGCCCGCCGCGAAGCGGAGTCACCTAGTGCAG” was tested. Which binding signal did it give?
**A.** 9390 fluorescence intensity (a.u.)

**Q.** Which binding signal does the source give for “TATCCTTTTGTTTTGTTTTAAGACTTCTCGTGTAATCTCGCGGAGTCACCTAGTGCAG” here?
**A.** 9000 fluorescence intensity (a.u.)

**Q.** “ATTCGGTCATTTCGCCGCCACCACCGCCGCCGCCGTCGTGCGGAGTCACCTAGTGCAG” was tested. Which binding signal did it give?
**A.** 9500 fluorescence intensity (a.u.)

**Q.** “TCCACTGTTGCCGCTGGGGCCAATCCCTCCTTGGACTCCGCGGAGTCACCTAGTGCAG” was tested. Which binding signal did it give?
**A.** 8750 fluorescence intensity (a.u.)

**Q.** For “TCTCTCTCTCTCTCTCTCTCTCTCTCGAATTCGCGAACACCGGAGTCACCTAGTGCAG”, which binding signal is on record?
**A.** 8540 fluorescence intensity (a.u.)

**Q.** With “CGCCTGCCGCGCCGCCCTCCACCAGGTCCTCTCGCGCCACCGGAGTCACCTAGTGCAG” as the sequence, how does the binding signal read?
**A.** 9660 fluorescence intensity (a.u.)

**Q.** How did the binding signal turn out when “TGACGCCGTTGACTTTTTTAAACATGTTTGATCGTTCGTCCGGAGTCACCTAGTGCAG” was run?
**A.** 35900 fluorescence intensity (a.u.)

**Q.** Which binding signal does the source give for “ACTTTTATTCTGGGGTGGAGGTAGTACAAACTTTTTTATACGGAGTCACCTAGTGCAG” here?
**A.** 9530 fluorescence intensity (a.u.)

**Q.** For “TACTACTCTCCTTTCTTTACGTGGTAGCTGGGCTGGGCTGCGGAGTCACCTAGTGCAG”, which binding signal is on record?
**A.** 9360 fluorescence intensity (a.u.)

**Q.** Which binding signal does the source give for “GTTATTCTTGCATGCCAAGTCCTTTTCCAGGGATTGCAGACGGAGTCACCTAGTGCAG” here?
**A.** 8150 fluorescence intensity (a.u.)

**Q.** With “TCGTCGTTGGTTTCTTGCCGCCTTGACCCCAACCACCAGCCGGAGTCACCTAGTGCAG” as the sequence, how does the binding signal read?
**A.** 8170 fluorescence intensity (a.u.)

**Q.** How did the binding signal turn out when “TGGTTTGGTTACTGGTTTAGTGCTTGAATTAATGTGGCACCGGAGTCACCTAGTGCAG” was run?
**A.** 18400 fluorescence intensity (a.u.)

**Q.** With “GAGTTTTTTTGTTTTGTTCTTTTGCTTTGGTTAGATAAAGCGGAGTCACCTAGTGCAG” as the sequence, how does the binding signal read?
**A.** 8550 fluorescence intensity (a.u.)

**Q.** With “CCATTACTACTGCGTGCCCTTGGATGGCTATTTTTCTCGACGGAGTCACCTAGTGCAG” as the sequence, how does the binding signal read?
**A.** 8760 fluorescence intensity (a.u.)

**Q.** Which binding signal does the source give for “CAATGCTGGACTTATCGGGTAACGCGCTTACCGGCACTCTCGGAGTCACCTAGTGCAG” here?
**A.** 8640 fluorescence intensity (a.u.)

**Q.** For “TAAAACGAATGGTCAAACGTTGGTCGAAAAGTCAACGGCGCGGAGTCACCTAGTGCAG”, which binding signal is on record?
**A.** 14400 fluorescence intensity (a.u.)

**Q.** With “ACCATTCTTCACTTGACTCGTCTTCATCCATCCGACGCCGCGGAGTCACCTAGTGCAG” as the sequence, how does the binding signal read?
**A.** 9890 fluorescence intensity (a.u.)

**Q.** With “CCACTTCTCTCTCTACAATCCAAACTCACTCTCTCCCTCTCGGAGTCACCTAGTGCAG” as the sequence, how does the binding signal read?
**A.** 11000 fluorescence intensity (a.u.)

**Q.** With “AATGGTCAAACATGTGAGAAAAAGTCAACGATGTCATCTACGGAGTCACCTAGTGCAG” as the sequence, how does the binding signal read?
**A.** 14700 fluorescence intensity (a.u.)

**Q.** For “CGTTGACTTTTTCTTACATGTTTGACCATTCGTCTTATTTCGGAGTCACCTAGTGCAG”, which binding signal is on record?
**A.** 35300 fluorescence intensity (a.u.)

**Q.** For “TAGATGGCAGTTTCTTTCCTTGGGACCTACGCTAATGCCTCGGAGTCACCTAGTGCAG”, which binding signal is on record?
**A.** 9960 fluorescence intensity (a.u.)

**Q.** “CTTTTTCTCATTATTTTCCAATGCATGCATCGATCAACAACGGAGTCACCTAGTGCAG” was tested. Which binding signal did it give?
**A.** 8440 fluorescence intensity (a.u.)

**Q.** How did the binding signal turn out when “TAGATTACACATGCCCAACACGTCCCATCACTAATCTGATCGGAGTCACCTAGTGCAG” was run?
**A.** 9420 fluorescence intensity (a.u.)

**Q.** “TGTTGACTTTTTAAAACATGTTTGACCGTTCATATTATTCCGGAGTCACCTAGTGCAG” was tested. Which binding signal did it give?
**A.** 15700 fluorescence intensity (a.u.)

**Q.** For “TATTGATCTCCAATTCTTTTCTCACTTCTACTTGTTTTAACGGAGTCACCTAGTGCAG”, which binding signal is on record?
**A.** 8660 fluorescence intensity (a.u.)

**Q.** With “GTGTATTCTACTTAGTAATTTACTTGGCTTGAATTTTTTTCGGAGTCACCTAGTGCAG” as the sequence, how does the binding signal read?
**A.** 28900 fluorescence intensity (a.u.)
